{"source": "PubChem BioAssay AID504784 (Drosophila RNAi Screening Center, 2011)", "assay": "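Fly genes whose silencing alters how much lipid cells keep in droplets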 (primary screen)", "cell system": "Drosophila Kc167 embryonic cells", "reagent": "long dsRNA against Drosophila genes, about 250 ng dsRNA per well", "timing": "4 days", "treatment": "cells fed 400 µM oleic acid bound to BSA", "read-out": "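Cells imaged and segmented; ratio of lipid droplet area to nuclear area, log-transformed, then normalised as a B-score over the screen; higher means more stored lipid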", "scale": "droplet/nuclear area B-score: higher = more stored lipid (overstorage)", "note": "The deposit covers about 17,000 reagents; this is a random part of those with a known target gene and a result. 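Each column is one replicate's B-score; the combined score over replicates was not deposited, so single values may mislead.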 Reagents against one gene are numbered here. Not all columns of the deposit are shown."}
{"gene": "CG7856", "reagent": 1, "droplet/nuclear area B-score, replicate 1": -2.54}
{"gene": "CG32409", "reagent": 1, "droplet/nuclear area B-score, replicate 1": -0.271}
{"gene": "Glut3", "reagent": 1, "droplet/nuclear area B-score, replicate 1": -0.0161}
{"gene": "CG3808", "reagent": 1, "droplet/nuclear area B-score, replicate 1": 1.03}
{"gene": "CG8840", "reagent": 1, "droplet/nuclear area B-score, replicate 1": -2.73}
{"gene": "Acsx2", "reagent": 1, "droplet/nuclear area B-score, replicate 1": 3.94}
{"gene": "Pex16", "reagent": 1, "droplet/nuclear area B-score, replicate 1": 0.582}
{"gene": "CG32075", "reagent": 1, "droplet/nuclear area B-score, replicate 1": -1.74}
{"gene": "mthl3", "reagent": 1, "droplet/nuclear area B-score, replicate 1": 0.0314}
{"gene": "Fer2LCH", "reagent": 1, "droplet/nuclear area B-score, replicate 1": 0.344}
{"gene": "SC35", "reagent": 1, "droplet/nuclear area B-score, replicate 1": 1.89}
{"gene": "SC35", "reagent": 2, "droplet/nuclear area B-score, replicate 1": 1.31}
{"gene": "CG17242", "reagent": 1, "droplet/nuclear area B-score, replicate 1": 1.36}
{"gene": "Rpn13", "reagent": 1, "droplet/nuclear area B-score, replicate 1": 0.614}
{"gene": "CG12493", "reagent": 1, "droplet/nuclear area B-score, replicate 1": -0.957}
{"gene": "Dyb", "reagent": 1, "droplet/nuclear area B-score, replicate 1": 0.0229}
{"gene": "Dyb", "reagent": 2, "droplet/nuclear area B-score, replicate 1": 3.85}
{"gene": "CG12360 (retired record)", "reagent": 1, "droplet/nuclear area B-score, replicate 1": 1.98}
{"gene": "tin", "reagent": 1, "droplet/nuclear area B-score, replicate 1": 0.287}
{"gene": "tin", "reagent": 2, "droplet/nuclear area B-score, replicate 1": 2.35}
{"gene": "tin", "reagent": 3, "droplet/nuclear area B-score, replicate 1": -2.55}
{"gene": "pinta", "reagent": 1, "droplet/nuclear area B-score, replicate 1": 0.115}
{"gene": "CG17237", "reagent": 1, "droplet/nuclear area B-score, replicate 1": -0.422}
{"gene": "CG5111", "reagent": 1, "droplet/nuclear area B-score, replicate 1": 0.806}
{"gene": "CG13231", "reagent": 1, "droplet/nuclear area B-score, replicate 1": -0.719}
{"gene": "Ocho", "reagent": 1, "droplet/nuclear area B-score, replicate 1": -0.0171}
{"gene": "twin", "reagent": 1, "droplet/nuclear area B-score, replicate 1": -1.69}
{"gene": "twin", "reagent": 2, "droplet/nuclear area B-score, replicate 1": 2.45}
{"gene": "twin", "reagent": 3, "droplet/nuclear area B-score, replicate 1": 0.845}
{"gene": "drn", "reagent": 1, "droplet/nuclear area B-score, replicate 1": -0.572}
{"gene": "Ctr9", "reagent": 1, "droplet/nuclear area B-score, replicate 1": -2.72}
{"gene": "CG13949", "reagent": 1, "droplet/nuclear area B-score, replicate 1": -0.302}
{"gene": "eIF4E1", "reagent": 1, "droplet/nuclear area B-score, replicate 1": 1.81}
{"gene": "Actbeta", "reagent": 1, "droplet/nuclear area B-score, replicate 1": 1.31}
{"gene": "Actbeta", "reagent": 2, "droplet/nuclear area B-score, replicate 1": 0.216}
{"gene": "CG43737", "reagent": 1, "droplet/nuclear area B-score, replicate 1": 3.99}
{"gene": "CG31789", "reagent": 1, "droplet/nuclear area B-score, replicate 1": -0.811}
{"gene": "wek", "reagent": 1, "droplet/nuclear area B-score, replicate 1": 1.52}
{"gene": "Oxp", "reagent": 1, "droplet/nuclear area B-score, replicate 1": 1.21}
{"gene": "CG9171", "reagent": 1, "droplet/nuclear area B-score, replicate 1": 0.0902}
{"gene": "CG9171", "reagent": 2, "droplet/nuclear area B-score, replicate 1": -0.0996}
